# The other results are listed elsewhere or left out.
# Tested on: T1, CTL2-GFP (C. trachomatis L2/434/Bu, GFP-expressing)
# T1 construct: L2/434/Bu, GFP-expressing
# Set-up: species or system HeLa; Intracellular C. trachomatis growth in HeLa cells, bulk GFP fluorescence relative to DMSO
# Conditions: bulk GFP, single well; 28.5 h, 10 µM; inhibitor
row,SMILES,% of control remaining
1,CCNCCNc1ccc([N+](=O)[O-])cc1 [CBK264179C],137.604%
2,Nc1cc(O)nc(SCC(=O)N2CCN(C(c3ccccc3)c3ccccc3)CC2)n1 [CBK268014],111.626%
3,CN(C)CCN(C)c1ccc(-c2cc3ccccc3o2)cn1 [CBK036820],94.9804%
4,O=C1CSC(c2cccc(Cl)c2Cl)N1C1CCCCC1 (stereo not drawn) [CBK020678],72.4579%
5,Cc1noc(C)c1NC(=O)c1cncnc1 [CBK200382],110.542%
6,O=C(O)CCCC(=O)N1CCN2C(=O)c3cc(Br)ccc3NC(=O)[C@@H]2C1 [CBK289581],117.88%
7,CN(CC(=O)Nc1ccccc1-c1ccccc1)S(=O)(=O)c1ccc2ccccc2c1 [CBK267432],117.604%
8,OCc1ccccc1-c1cncc(NCc2cccs2)n1 [CBK065345],112.13%
9,Cn1[nH]c(COC(C)(C)C)c(Cc2c(Cl)cccc2Cl)c1=O [CBK093521],118.16%
10,O=C(Nc1ccc2oc(-c3cccnc3)nc2c1)c1cccc(OCc2ccccc2)c1 [CBK263420],129.952%
11,Cc1ccc2c(c1)N(C(=O)COc1nc3ccccc3s1)C(C)(C)c1ssc(=S)c1-2 [CBK262696],96.082%
12,O=C(O)Cc1cnnn1-c1ccc(Cl)cc1Cl [CBK288035],124.627%
13,Cc1ccc(S(=O)(=O)OC[C@H]2O[C@@H](n3ccc(=O)[nH]c3=O)C[C@H]2O)cc1 [CBK201283],155.283%
14,CC1(C)Cc2nc3sc(C(=O)O)c(NC(=O)c4ccccc4)c3cc2CO1 [CBK266166],140.024%
15,Cc1nnc2sc(-c3ccc(NC(=O)CSc4ccc(Cl)cc4)cc3)nn12 [CBK266800],88.2035%
16,CN1CCCN(c2nccnc2-c2ccccc2CO)CC1 [CBK038014],135.394%
17,CCN1CCCC1CN(Cc1cccs1)Cc1cnc(C)n1C (stereo not drawn) [CBK282603],114.894%
18,CCn1cc(C2CN(S(=O)(=O)c3sc(C)nc3C)CCO2)cn1 (stereo not drawn) [CBK305420],81.1275%
19,CC(C)CCn1cc(C(=O)N2CCNCC2c2cccc(Cl)c2)nn1 (stereo not drawn) [CBK304115],132.137%
20,COC(=O)c1ccc(NC(=O)c2c(Br)c(Br)c(Br)c(Br)c2C(=O)O)cc1 [CBK261321],100%
21,CCCc1[nH]nc(O)c1Cc1ccccc1-c1ccccc1 [CBK075034],117.877%
22,COc1ccc2[nH]c(C(=O)N3CCn4nc(CO)cc4C3)c(C)c2c1 [CBK307302],118.158%
23,S=C(Nc1ncn(Cc2ccc(Cl)c(Cl)c2)n1)Nc1ccc(Br)cc1Cl [CBK266940],142.25%
24,Cc1ccc(NC(=O)c2cnc3ccccc3c2)c(C)n1 [CBK200290],144.604%
25,COc1ccc([C@@]23CC/C(=N/NS(=O)(=O)c4ccc(C)cc4)C[C@@H]2N(Cc2ccccc2)CC3)cc1OC [CBK002717],100.175%
26,COC(=O)Nc1ncc(CN2CCCCC2)s1 [CBK268208],98.6362%

row,SMILES,% of control remaining
1,COc1ncc(-c2cc(N3CCN(CCN(C)C)CC3)n3nccc3n2)c(OC)n1 [CBK037033],140.321%
2,COc1ccc(NC(=S)NC(=N)N2CCN(Cc3ccccc3)CC2)cc1 [CBK267858],132.578%
3,CC(=O)Nc1ccc(S(=O)(=O)Nc2ccccc2C(=O)O)cc1 [CBK042361],118.928%
4,CCCC1C(C(N)=O)=C(C)NC(C)=C1C(N)=O [CBK019102],129.482%
5,C=CCn1c(SCC(=O)Nc2cc(Cl)ccc2C)nnc1-c1ccccc1O [CBK266867],139.676%
6,CCc1ccc(Oc2cc(N3CCC(C(=O)NC4CC4)CC3)ncn2)cc1 [CBK287854],113.017%
7,CC(C)(C)NS(=O)(=O)c1ccc(OCC(=O)O)cc1 [CBK287077],105.795%
8,CC(CCCC(C)(C)O)Nc1cncc(-c2cccc(Cl)c2)n1 (stereo not drawn) [CBK037857],108.006%
9,O=c1c2scc(-c3cccc(F)c3)c2ncn1Cc1ccc(F)cc1 [CBK287810],136.259%
10,CCOC(=O)c1ccoc1CN1CCCC1c1ccsc1 (stereo not drawn) [CBK304878],65.8871%
11,CCCS(=O)(=O)N1CCN(CCN2C(=O)c3cccc4cccc(c34)C2=O)CC1 [CBK265559],125.728%
12,COc1cc2c(cc1OC)C(C)N(Cc1cc(C)c(O)c(C)c1)CC2 (stereo not drawn) [CBK074659C],123.148%
13,COc1ccccc1CN(Cc1cccnc1)C(=O)CNC(C)=O [CBK306843],95.8109%
14,Cc1ccc(NC(=O)c2cc(C(=O)Nc3ccc(C)c(C)c3)cc(N3C(=O)c4ccccc4C3=O)c2)cc1C [CBK261328],100%
15,Cn1cc(CN2CCCC(c3cc4ccccc4cn3)C2)cn1 (stereo not drawn) [CBK285042],113.046%
16,O=c1/c(=C/c2ccc3c(c2)OCO3)sc2nc3cc(Br)cnc3n12 [CBK262550],109.427%
17,CCOc1cccc(-c2cncc(NCc3cccs3)n2)c1 [CBK066034],102.206%
18,O=c1[nH]c2ccccc2n1C1CCN(CCOC(c2ccc(F)cc2)c2ccc(F)cc2)CC1 [CBK099807G],119.21%
19,Cc1nc2n(/N=C/c3ccc([N+](=O)[O-])cc3)c3ccccc3n2c1C#N [CBK263107],100%
20,O=C(O)CCSc1nnnn1C1CCCCC1 [CBK263052],111.194%
21,Cc1ccccc1OCC(O)Cn1c(=N)n(CCN2CCCCC2)c2ccccc21 (stereo not drawn) [CBK266698C],140.469%
22,CCc1ccc(S(=O)(=O)Nc2ccc(O)c(C(=O)O)c2)cc1 [CBK299827],140.77%
23,CC(=O)N1C[C@H](c2ccsc2)[C@H]2CN(Cc3cccs3)CC[C@H]21 [CBK284586],75.9748%
24,Oc1cccc(Sc2nccc(C(F)(F)F)n2)c1 [CBK093801],100%
25,O=C(O)CCCC(=O)N(c1ccccc1)c1ccccc1 [CBK286901],131.356%

# Some of the entries so far, with bars between the fields:
row | SMILES | % of control remaining
11 | Cc1ccc2c(c1)N(C(=O)COc1nc3ccccc3s1)C(C)(C)c1ssc(=S)c1-2 [CBK262696] | 96.082%
13 | Cc1ccc(S(=O)(=O)OC[C@H]2O[C@@H](n3ccc(=O)[nH]c3=O)C[C@H]2O)cc1 [CBK201283] | 155.283%
15 | Cc1nnc2sc(-c3ccc(NC(=O)CSc4ccc(Cl)cc4)cc3)nn12 [CBK266800] | 88.2035%
19 | CC(C)CCn1cc(C(=O)N2CCNCC2c2cccc(Cl)c2)nn1 (stereo not drawn) [CBK304115] | 132.137%
20 | COC(=O)c1ccc(NC(=O)c2c(Br)c(Br)c(Br)c(Br)c2C(=O)O)cc1 [CBK261321] | 100%
22 | COc1ccc2[nH]c(C(=O)N3CCn4nc(CO)cc4C3)c(C)c2c1 [CBK307302] | 118.158%
23 | S=C(Nc1ncn(Cc2ccc(Cl)c(Cl)c2)n1)Nc1ccc(Br)cc1Cl [CBK266940] | 142.25%
26 | COC(=O)Nc1ncc(CN2CCCCC2)s1 [CBK268208] | 98.6362%
4 | CCCC1C(C(N)=O)=C(C)NC(C)=C1C(N)=O [CBK019102] | 129.482%
14 | Cc1ccc(NC(=O)c2cc(C(=O)Nc3ccc(C)c(C)c3)cc(N3C(=O)c4ccccc4C3=O)c2)cc1C [CBK261328] | 100%
18 | O=c1[nH]c2ccccc2n1C1CCN(CCOC(c2ccc(F)cc2)c2ccc(F)cc2)CC1 [CBK099807G] | 119.21%
25 | O=C(O)CCCC(=O)N(c1ccccc1)c1ccccc1 [CBK286901] | 131.356%

# Reference: paper PMC12040169 (PLOS Biology, 2025)
